Laboratory results as given in the supplement of paper PMC7661543.
Differences between knockout arms are mostly noise.

System: BT-20
Assay: relative cell number vs DMSO control (72 h) (% of DMSO); higher = less growth inhibition (more cells)
Description: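 QMAP-Seq: a pool of 5 breast cancer cell lines (ZR-75-1, SKBR3, HCC-38, MDA-MB-231, BT-20), each carrying 12 doxycycline-inducible Cas9 sgRNA perturbations (11 knockouts plus non-targeting sgNT), was treated with compounds for 72 h at four 10-fold doses (10 nM-10 uM or 1 nM-1 uM range). Barcodes were amplified and sequenced, and cell number was interpolated from 293T spike-in standard curves. The result is expressed as % of the median of DMSO wells. Two biological replicates.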

O=P1(NCCCl)OCCCN1CCCl (stereo not drawn) [Ifosfamide]
Settings | relative cell number
sgRNA knockout: sgATF3, 10 nM | 91.4
sgRNA knockout: sgATF3, 100 nM | 87.8
sgRNA knockout: sgATF3, 1000 nM | 102
sgRNA knockout: sgATF3, 10000 nM | 96.1
sgRNA knockout: sgATF4, 10 nM | 89.9
sgRNA knockout: sgATF4, 100 nM | 93.8
sgRNA knockout: sgATF4, 1000 nM | 109
sgRNA knockout: sgATF4, 10000 nM | 104
sgRNA knockout: sgATF6, 10 nM | 73.49
sgRNA knockout: sgATF6, 100 nM | 106
sgRNA knockout: sgATF6, 1000 nM | 96.3
sgRNA knockout: sgATF6, 10000 nM | 94.2
sgRNA knockout: sgATG7, 10 nM | 91
sgRNA knockout: sgATG7, 100 nM | 101
sgRNA knockout: sgATG7, 1000 nM | 106
sgRNA knockout: sgATG7, 10000 nM | 95.8
sgRNA knockout: sgERN1, 10 nM | 100
sgRNA knockout: sgERN1, 100 nM | 87.8
sgRNA knockout: sgERN1, 1000 nM | 97.4
sgRNA knockout: sgERN1, 10000 nM | 92.1
sgRNA knockout: sgHSF1, 10 nM | 93.7
sgRNA knockout: sgHSF1, 100 nM | 99.1
sgRNA knockout: sgHSF1, 1000 nM | 117
sgRNA knockout: sgHSF1, 10000 nM | 93.1
sgRNA knockout: sgHSF2, 10 nM | 106
sgRNA knockout: sgHSF2, 100 nM | 98
sgRNA knockout: sgHSF2, 1000 nM | 93.9
sgRNA knockout: sgHSF2, 10000 nM | 92.8
sgRNA knockout: sgKEAP1, 10 nM | 100
sgRNA knockout: sgKEAP1, 100 nM | 95.5
sgRNA knockout: sgKEAP1, 1000 nM | 99.1
sgRNA knockout: sgKEAP1, 10000 nM | 88.7
sgRNA knockout: sgNFE2L2, 10 nM | 79.2
sgRNA knockout: sgNFE2L2, 100 nM | 102
sgRNA knockout: sgNFE2L2, 1000 nM | 110
sgRNA knockout: sgNFE2L2, 10000 nM | 84.6
sgRNA knockout: sgSLC35F2, 10 nM | 89.5
sgRNA knockout: sgSLC35F2, 100 nM | 96.9
sgRNA knockout: sgSLC35F2, 1000 nM | 127
sgRNA knockout: sgSLC35F2, 10000 nM | 93.8
sgRNA knockout: sgXBP1, 10 nM | 95.46
sgRNA knockout: sgXBP1, 100 nM | 102
sgRNA knockout: sgXBP1, 1000 nM | 106
sgRNA knockout: sgXBP1, 10000 nM | 99.7

CCn1c(=O)c2c(nc(/C=C/c3ccc(OC)c(OC)c3)n2C)n(CC)c1=O [Istradefylline]
Settings | relative cell number
sgRNA knockout: sgATF3, 10 nM | 102
sgRNA knockout: sgATF3, 100 nM | 92
sgRNA knockout: sgATF3, 1000 nM | 107
sgRNA knockout: sgATF3, 10000 nM | 95.4
sgRNA knockout: sgATF4, 10 nM | 94.4
sgRNA knockout: sgATF4, 100 nM | 96.55
sgRNA knockout: sgATF4, 1000 nM | 91.9
sgRNA knockout: sgATF4, 10000 nM | 112
sgRNA knockout: sgATF6, 10 nM | 106
sgRNA knockout: sgATF6, 100 nM | 86.7
sgRNA knockout: sgATF6, 1000 nM | 109
sgRNA knockout: sgATF6, 10000 nM | 103
sgRNA knockout: sgATG7, 10 nM | 97.7
sgRNA knockout: sgATG7, 100 nM | 98.5
sgRNA knockout: sgATG7, 1000 nM | 92.3
sgRNA knockout: sgATG7, 10000 nM | 108
sgRNA knockout: sgERN1, 10 nM | 95.3
sgRNA knockout: sgERN1, 100 nM | 90.5
sgRNA knockout: sgERN1, 1000 nM | 87
sgRNA knockout: sgERN1, 10000 nM | 83.7
sgRNA knockout: sgHSF1, 10 nM | 88.5
sgRNA knockout: sgHSF1, 100 nM | 106
sgRNA knockout: sgHSF1, 1000 nM | 94.2
sgRNA knockout: sgHSF1, 10000 nM | 112
sgRNA knockout: sgHSF2, 10 nM | 102
sgRNA knockout: sgHSF2, 100 nM | 110
sgRNA knockout: sgHSF2, 1000 nM | 78.5
sgRNA knockout: sgHSF2, 10000 nM | 102
sgRNA knockout: sgKEAP1, 10 nM | 95.2
sgRNA knockout: sgKEAP1, 100 nM | 95.1
sgRNA knockout: sgKEAP1, 1000 nM | 90.1
sgRNA knockout: sgKEAP1, 10000 nM | 99.8
sgRNA knockout: sgNFE2L2, 10 nM | 111
sgRNA knockout: sgNFE2L2, 100 nM | 118
sgRNA knockout: sgNFE2L2, 1000 nM | 115
sgRNA knockout: sgNFE2L2, 10000 nM | 113
sgRNA knockout: sgSLC35F2, 10 nM | 97.7
sgRNA knockout: sgSLC35F2, 100 nM | 102
sgRNA knockout: sgSLC35F2, 1000 nM | 87.4
sgRNA knockout: sgSLC35F2, 10000 nM | 108
sgRNA knockout: sgXBP1, 10 nM | 100
sgRNA knockout: sgXBP1, 100 nM | 101
sgRNA knockout: sgXBP1, 1000 nM | 94.2
sgRNA knockout: sgXBP1, 10000 nM | 112
